Results from PubChem BioAssay AID1347076 (National Center for Advancing Translational Sciences (NCATS), 2019).
Out of some 400,000 compounds screened, about 13,000 (3.2%) were called active. The inconclusive results got no clear call from the source; some entries with a clear call stand among them for comparison. The call rests on the fitted dose curve; in most records, active means well fitted cell-killing curve with a large enough effect; inconclusive means small, poorly fitted or top-dose-only effect, or effect the other way; inactive means flat fitted curve, though single readings scatter. Potencies beside an inconclusive call are fits to weak or partial responses and may not hold up.

experiment: qHTS assay for MDR1-selective chemotherapeutics: Primary screen using the drug-selected MDR subline cells KB-V1; conditions: KB-V1 MDR cells viability, CellTiter-Glo, 72 h; activity change, negative = cytotoxicity: at 46.1 µM (top of the series); further: nearly all actives have a fitted effect of over 60% in size
Method in brief: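 Cytotoxicity toward P-gp-expressing KB-V1 cells was determined as loss of CellTiter-Glo luminescence after 72 h at 37 degrees C. Compounds were tested in quantitative HTS format across a concentration range, with curves fitted to normalized data.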
On the % scale 0 is the no-effect control and ±100 the full control effect; potency means the concentration at half of the fitted maximal effect.

SMILES | Potency | activity change, negative = cytotoxicity
CN(CC(=O)Nc1cccc(F)c1)C(=O)C1CCC(C(=O)N(C)CC(=O)Nc2cccc(F)c2)CC1 (stereo unspecified) | inconclusive: 18.4 µM [rising, single point] | 
O=C(CN1CCN(Cc2ccc(F)cc2)C1=O)NCc1cccs1 | inconclusive: 0.0116 µM [rising, full curve, poor fit] | 
O=C(C1=C(O)C(=O)N(Cc2ccco2)C1c1ccccc1F)c1cccs1 (stereo unspecified) |  | inactive: 3.6%
CCOC(=O)C1CCCN(C(=O)Cn2ncc3c4ccccc4n(Cc4ccccc4)c3c2=O)C1 (stereo unspecified) |  | inactive: 6.07%
CCOC(=O)NN1C(=O)c2ccccc2NC1c1ccccn1 (stereo unspecified) | inconclusive: 29.1 µM [rising, single point] | 
Cn1c(=O)c2c(nc(SCC(=O)c3cccs3)n2Cc2ccc(F)cc2)n(C)c1=O | inconclusive: 23.1 µM [cytotoxic, partial curve, poor fit] | 
CCc1ccccc1NC(=O)C(C)n1c(=O)cc(C)c2c(C)nn(-c3ccccc3)c21 (stereo unspecified) |  | inactive: 12%
COc1ccccc1C(=O)NNC(=O)c1cccc(O)c1 |  | inactive: -8.81%
Cc1cccc(NC(=O)CNC(=O)c2cccs2)n1 | inconclusive: 20.6 µM [cytotoxic, single point] | 
Cc1cccc(C(=O)N2CCC(=O)N([C@H](COCc3cccc(Cl)c3)Cc3ccccc3)CC2)c1 |  | inactive: -26.1%
COc1ccc(N2CCN(c3cc(C(=O)NC4CCCCC4)ncn3)CC2)cc1OC | active: 14.6 µM | 
Cc1ccc(C(=O)Nc2c(C)cc(-c3ccccc3)oc2=O)cc1 | inconclusive: 7.31 µM [cytotoxic, partial curve] | 
O=[N+]([O-])c1ccc(NN=Cc2cccc3ccccc23)nc1 |  | inactive: -4.82%
CCCCNC(=O)C1(C)CCN1C(=O)c1sccc1C (stereo unspecified) |  | inactive: 0.209%
Cc1cccc(OCC(=O)NC(=S)Nc2ccccc2N2CCOCC2)c1C |  | inactive: 0.0707%
CC/C(=N/NC(=O)c1ccccc1O)c1c(C)[nH]n(-c2ccccc2)c1=O |  | inconclusive: -48.5%
C#CCOC(=O)c1ccc(-n2cncn2)nc1 | inconclusive: 10.3 µM [rising, partial curve, poor fit] | 
O=C(C/C=N\OCc1ccc(Cl)cc1Cl)Nc1ccccc1 | inconclusive: 29.1 µM [rising, single point] | 
CCOC(=O)C1(CCOc2ccccc2)CCN(Cc2ccc(OC)c(COC)c2)CC1 | inconclusive: 5.17 µM [cytotoxic, full curve, poor fit] | 
Cc1nc2c3cc(F)ccc3n(CCN3CCCCC3)c2s1 |  | inactive: -25.1%
O=c1[nH]nc(Cc2ccc([N+](=O)[O-])cc2)c2ccccc12 | inconclusive: 29.1 µM [cytotoxic, single point] | 
Cc1cccc(C(=O)OC(C)C(=O)N2CCc3ccccc3C2)c1C (stereo unspecified) | active: 18.4 µM | 
COc1cccc(/C=N/n2c(CO)nc3ccccc32)c1OC | inconclusive: 20.6 µM [cytotoxic, partial curve] | 
Cc1ccc(NC(=O)c2nc(S(C)(=O)=O)ncc2N(Cc2ccco2)Cc2cccs2)cc1C |  | inactive: -4.83%

SMILES | Potency | activity change, negative = cytotoxicity
O=C1CC(=C2c3ccccc3-c3ccccc32)C(=O)N1CCCCN1CCN(c2ccccc2)CC1 | inconclusive: 16.4 µM [cytotoxic, partial curve, poor fit] | 
Cc1ccc(CNC(=O)c2cccc(-n3cnnn3)c2)cc1 | inconclusive: 20.6 µM [cytotoxic, partial curve, poor fit] | 
CC(C)(C)NC(=O)NC(=O)CSc1nnc(COc2ccccc2Cl)o1 |  | inconclusive: 40.2%
CCCn1c(NC(=O)c2ccco2)nc2ccccc21 | active: 14.6 µM | 
CCOC(=O)Cn1nc(Cc2ccccc2)c2ccccc2c1=O |  | inactive: -9.5%
CCNC(=O)C1CCCN1S(=O)(=O)c1ccc2ccccc2c1 (stereo unspecified) |  | inactive: 1.51%
CCOC(=O)N/N=C1\CC(C)CC(C)(C)C1 (stereo unspecified) | inconclusive: 20.6 µM [rising, partial curve, poor fit] | 
CCOC(=O)c1c(C)[nH]c(N=Nc2ccc(C)cc2)c1C | inconclusive: 29.1 µM [cytotoxic, single point] | 
CC(=O)c1cc(NC(=O)c2ccc(C)cc2)c(=O)oc1/C=C/N(C)C | inconclusive: 29.1 µM [cytotoxic, single point] | 
COCCCn1c(C(=O)NC2CCCCC2)cc2c(=O)n3cccc(C)c3nc21 | inconclusive: 25.9 µM [cytotoxic, single point] | 
N=c1c(C(=O)NCc2ccco2)cc2c(=O)n3ccccc3nc2n1C1CCCC1 | inconclusive: 7.31 µM [cytotoxic, partial curve, poor fit] | 
Cc1ccc(C(=O)Nc2ccc(C(=O)N3CCCCC3C)cc2)cc1 (stereo unspecified) | inconclusive: 29.1 µM [cytotoxic, single point] | 
CCN1/C(=C/c2ccc3cc(C)ccc3[n+]2CC)Sc2ccccc21 |  | inactive: -11.8%
Fc1ccc(Nc2ncnc3c2nc2n3CCCCC2)c(F)c1 | inconclusive: 16.4 µM [cytotoxic, partial curve] | 
CCOc1cc2[nH]c(=S)n(Cc3ccc(C(=O)NCCCN(CC)CC)cc3)c(=O)c2cc1OCC | inconclusive: 29.1 µM [rising, single point] | 
COc1ccc(CNC(=S)N2CCN(Cc3ccccc3)CC2)cc1 | active: 16.4 µM | 
COc1ccc(CNc2ncc(-c3ccccc3)n2C)cc1 |  | inactive: -8.48%
CCN(c1ccccc1)S(=O)(=O)c1ccc(NC(=O)c2cc(=O)c3ccccc3o2)cc1 |  | inconclusive: 12.8%
S=c1[nH]nc(-c2ccccc2Br)n1Cc1ccccc1 | inconclusive: 11.6 µM [rising, partial curve, poor fit] | 
CCOC(=O)c1c(C)[nH]c(C(=O)OCC(=O)Nc2cc(C)ccc2OC)c1C | inconclusive: 2.06 µM [cytotoxic, full curve] | 
O=C(NCCCN1CCOCC1)c1cc(-c2ccc(F)cc2)no1 | inconclusive: 29.1 µM [cytotoxic, single point] | 
O=C(Nc1ccc(C(=O)OCc2cc(=O)n3nc(C4CC4)sc3n2)cc1)c1cccc(F)c1 | inconclusive: 7.31 µM [rising, partial curve] | 
CN(C)c1ccc(/C=N/NC(=O)c2nnn(-c3nonc3N)c2COc2ccc(F)cc2)cc1 | inconclusive: 29.1 µM [rising, single point] | 
CCOCCCNC(=O)C(c1ccccc1)N(Cc1cccs1)C(=O)CNC(=O)c1ccccc1 (stereo unspecified) | inconclusive: 11.6 µM [cytotoxic, partial curve, poor fit] | 

SMILES | Potency | activity change, negative = cytotoxicity
COc1ccc(N2CCN(CCCNC(=O)c3cc4sccc4n3C)CC2)cc1 | inconclusive: 2.59 µM [cytotoxic, partial curve, poor fit] | 
CC(CC(=O)Nc1ccc(F)c([N+](=O)[O-])c1)c1ccccc1 (stereo unspecified) | inconclusive: 29.1 µM [cytotoxic, single point] | 
CC1CCCCC1NC(=O)C1CCCN(S(=O)(=O)c2ccc(-n3cnnn3)cc2)C1 (stereo unspecified) |  | inactive: -19.1%
COc1cc(OC)c(OC)cc1/C=C1\SC(N2CCCCC2)=NC1=O |  | inconclusive: -2.69%
COc1ccc(N(C(=O)C(C)C)S(=O)(=O)c2ccc3ccccc3c2)cc1 |  | inactive: 0.129%
Nc1nc(-c2ccccc2)c(-c2ccccc2)s1 |  | inactive: 11.3%
COc1ccc(NC(=O)c2cccc(N3C(=O)C4C5CCC(C5)C4C3=O)c2)cc1 (stereo unspecified) | inconclusive: 13 µM [cytotoxic, partial curve] | 
Cc1c(Cl)cccc1NC(=O)CCC(=O)NNC(=O)c1ccccc1Cl | inconclusive: 2.91 µM [cytotoxic, partial curve] | 
O=C(Nc1ccc(F)cc1)C1CCN(S(=O)(=O)c2ccc3c(c2)CCCN3C(=O)C2CCC2)CC1 |  | inactive: -9.87%
CC1C/C(=C/c2cccs2)C(=O)/C(=C/c2cccs2)C1 (stereo unspecified) | inconclusive: 29.1 µM [cytotoxic, single point] | 
O=C(Nc1ccc2oc(-c3ccccc3)nc2c1)c1ccco1 | active: 23.1 µM | 
Cc1ccc(N2CCN(C(=O)CNS(=O)(=O)c3ccc(Br)s3)CC2C)cc1 (stereo unspecified) | active: 2.31 µM | 
c1ccc(Cn2c(CNc3nc4ccccc4n3CCN3CCOCC3)nc3ccccc32)cc1 | active: 8.2 µM | 
COC(=O)C1=C(C)N(Cc2ccccc2)C(=NCc2ccccc2)N[C@H]1c1cccc(C(F)(F)F)c1 | inconclusive: 29.1 µM [cytotoxic, single point] | 
COc1ccc(CN(Cc2cccn2C)S(=O)(=O)c2ccc(C)cc2)cc1 | inconclusive: 29.1 µM [cytotoxic, single point] | 
O=C1NC(=S)N/C1=C/c1ccc2c(c1)OCO2 | inconclusive: 29.1 µM [cytotoxic, single point] | 
Cc1c(C(=O)OC2CCCCC2)[nH]c2c1C(=O)CC(c1ccc(C(C)(C)C)cc1)C2 (stereo unspecified) |  | inactive: 16.9%
COc1ccccc1C(=O)N1[C@@H](C(C)C)COc2cc(Br)ccc2S1(=O)=O | inconclusive: 25.9 µM [cytotoxic, partial curve, poor fit] | 
c1ccc2c(c1)[nH]c1c(NCC3CCCO3)ncnc12 (stereo unspecified) | inconclusive: 14.6 µM [cytotoxic, partial curve, poor fit] | 
CCc1nc2ccc(C(=O)NCCc3ccccn3)cn2c1N(CCC(C)C)CCN(C)C |  | inactive: 7.34%
COc1ccc([N+](=O)[O-])cc1NS(=O)(=O)c1cccc(C(=O)NCCCN2CCCC2=O)c1 | inconclusive: 29.1 µM [rising, single point] | 
O=C(CSc1nc(-c2ccccc2)nc2c1Cc1ccccc1O2)N1CCCCC1 |  | inactive: 3.21%
CC(=O)n1cc(Nc2ccc([N+](=O)[O-])cc2)c2ccccc21 | inconclusive: 20.6 µM [cytotoxic, single point] | 
